Measurements from US11253527B2, “Method and composition for inhibiting virus infection” (priority 2019, dated 2022).
Some entries share one result that the patent states for a list of compounds.

Test system: HBV
Assay: HBV entry/infection of DMSO-differentiated HuS-E/2 cells (HBsAg/HBeAg ELISA, HBV mRNA RT-PCR)
Type: cell-based, Hepatitis B virus
Conditions: drug present during HBV infection, 20 μg/ml, medium after 48 hours
Experimental: (§1) DMSO-differentiated HuS-E/2 cells were exposed to HBV at a MOI of 10 for 20 h in the presence of the indicated concentration of Antrodia camphorata fruit body extracts, then the HBV and drugs were removed and the cells incubated for 2 days, when HBsAg secreted into the culture medium was measured by ELISA and expressed as a percentage of the value for the non-drug-treated controls. The results are the mean±SD for three independent experiments. *, P<0.05; **, P<0.01; ***, P<0.001.
as §1, with “HBeAg” for “HBsAg”
DMSO-differentiated HuS-E/2 cells were exposed to HBV at a MOI of 10 for 20 h in the presence of the indicated concentration of Antrodia camphorata fruit body extracts, then the HBV and drugs were removed and the cells incubated for 2 days. […]
Total DNA is extracted with a Genomic DNA isolation kit (Nexttec Biotechnologie, Germany). […] The results are analyzed with the iCycler iQ real-time PCR detection system (Bio-Rad). […]

SMILES: C=C(CC[C@@H](C(=O)O)[C@H]1C[C@H](OC(C)=O)[C@@]2(C)C3=C(CC[C@]12C)[C@@]1(C)CC[C@H](O)C(C)(C)[C@@H]1CC3)C(C)C [A5, versisponic acid]
- decrease in HBV HBeAg levels: greater than 80%
- decrease in HBV HBsAg levels: greater than 80%
